According to the supplement of paper PMC10849652:
This is one part of the list.

Chains of the proteins cited; added tags and fusions are not shown. Lines headed by an entry give the natural chain unless they say otherwise; changes in a name come on top.
UniProt Q9NRN7: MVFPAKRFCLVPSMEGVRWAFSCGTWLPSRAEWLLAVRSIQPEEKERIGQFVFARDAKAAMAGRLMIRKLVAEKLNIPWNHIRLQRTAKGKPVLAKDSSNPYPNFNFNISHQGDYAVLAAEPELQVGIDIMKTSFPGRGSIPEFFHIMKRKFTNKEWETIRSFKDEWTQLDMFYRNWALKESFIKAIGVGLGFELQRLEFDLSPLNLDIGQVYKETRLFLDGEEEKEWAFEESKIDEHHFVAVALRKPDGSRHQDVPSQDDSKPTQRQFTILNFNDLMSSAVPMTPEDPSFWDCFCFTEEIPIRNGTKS
UniProt P16219: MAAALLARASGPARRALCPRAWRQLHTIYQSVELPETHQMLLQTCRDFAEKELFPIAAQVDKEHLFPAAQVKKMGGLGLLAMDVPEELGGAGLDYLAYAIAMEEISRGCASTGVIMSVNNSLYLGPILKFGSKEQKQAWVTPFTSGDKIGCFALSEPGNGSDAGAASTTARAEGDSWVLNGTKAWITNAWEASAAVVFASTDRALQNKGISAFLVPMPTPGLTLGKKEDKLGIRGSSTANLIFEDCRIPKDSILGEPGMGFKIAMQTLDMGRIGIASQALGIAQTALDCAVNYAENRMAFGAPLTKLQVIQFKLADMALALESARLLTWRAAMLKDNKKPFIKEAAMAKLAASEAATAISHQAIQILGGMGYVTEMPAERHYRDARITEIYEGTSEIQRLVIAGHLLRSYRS
UniProt P07311: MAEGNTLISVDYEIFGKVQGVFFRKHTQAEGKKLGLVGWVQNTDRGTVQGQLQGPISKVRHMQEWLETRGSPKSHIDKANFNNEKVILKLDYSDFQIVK
UniProt Q9NRK6: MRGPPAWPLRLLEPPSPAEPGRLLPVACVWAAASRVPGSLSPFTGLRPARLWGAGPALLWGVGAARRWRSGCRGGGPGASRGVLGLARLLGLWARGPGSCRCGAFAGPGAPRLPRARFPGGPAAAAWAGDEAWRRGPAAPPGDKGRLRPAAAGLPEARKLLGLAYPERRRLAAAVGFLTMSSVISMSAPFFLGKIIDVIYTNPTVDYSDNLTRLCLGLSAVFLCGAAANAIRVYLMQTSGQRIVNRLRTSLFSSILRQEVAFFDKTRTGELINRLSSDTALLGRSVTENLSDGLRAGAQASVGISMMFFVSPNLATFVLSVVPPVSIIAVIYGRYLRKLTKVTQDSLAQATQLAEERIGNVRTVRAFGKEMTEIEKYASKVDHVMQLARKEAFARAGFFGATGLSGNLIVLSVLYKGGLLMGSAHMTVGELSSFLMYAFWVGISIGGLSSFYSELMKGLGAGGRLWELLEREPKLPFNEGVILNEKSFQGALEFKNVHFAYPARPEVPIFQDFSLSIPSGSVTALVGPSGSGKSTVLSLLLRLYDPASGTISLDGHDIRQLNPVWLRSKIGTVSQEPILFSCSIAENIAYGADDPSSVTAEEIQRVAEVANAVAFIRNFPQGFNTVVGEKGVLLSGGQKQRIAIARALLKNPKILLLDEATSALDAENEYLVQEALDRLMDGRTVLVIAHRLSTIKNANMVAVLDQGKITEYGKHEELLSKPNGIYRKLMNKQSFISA
UniProt O95573: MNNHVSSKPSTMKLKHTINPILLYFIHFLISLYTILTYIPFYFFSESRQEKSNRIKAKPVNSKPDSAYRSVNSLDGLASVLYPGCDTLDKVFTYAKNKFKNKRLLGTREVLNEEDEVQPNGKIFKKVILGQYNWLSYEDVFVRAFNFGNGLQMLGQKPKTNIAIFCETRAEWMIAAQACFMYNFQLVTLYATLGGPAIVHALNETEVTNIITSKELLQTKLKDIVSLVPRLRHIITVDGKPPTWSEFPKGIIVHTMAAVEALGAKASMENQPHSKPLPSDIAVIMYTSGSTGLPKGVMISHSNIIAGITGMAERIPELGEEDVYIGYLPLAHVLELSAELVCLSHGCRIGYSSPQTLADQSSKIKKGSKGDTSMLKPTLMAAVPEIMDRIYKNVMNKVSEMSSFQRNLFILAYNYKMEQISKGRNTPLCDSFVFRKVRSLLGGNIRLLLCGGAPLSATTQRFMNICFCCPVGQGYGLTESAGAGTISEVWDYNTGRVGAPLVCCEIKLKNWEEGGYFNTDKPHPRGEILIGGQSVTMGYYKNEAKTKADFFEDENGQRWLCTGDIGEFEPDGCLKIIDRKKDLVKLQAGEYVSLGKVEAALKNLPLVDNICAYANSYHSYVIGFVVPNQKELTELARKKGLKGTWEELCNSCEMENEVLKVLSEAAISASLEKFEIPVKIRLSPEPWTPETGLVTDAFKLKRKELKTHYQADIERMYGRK
UniProt O14672: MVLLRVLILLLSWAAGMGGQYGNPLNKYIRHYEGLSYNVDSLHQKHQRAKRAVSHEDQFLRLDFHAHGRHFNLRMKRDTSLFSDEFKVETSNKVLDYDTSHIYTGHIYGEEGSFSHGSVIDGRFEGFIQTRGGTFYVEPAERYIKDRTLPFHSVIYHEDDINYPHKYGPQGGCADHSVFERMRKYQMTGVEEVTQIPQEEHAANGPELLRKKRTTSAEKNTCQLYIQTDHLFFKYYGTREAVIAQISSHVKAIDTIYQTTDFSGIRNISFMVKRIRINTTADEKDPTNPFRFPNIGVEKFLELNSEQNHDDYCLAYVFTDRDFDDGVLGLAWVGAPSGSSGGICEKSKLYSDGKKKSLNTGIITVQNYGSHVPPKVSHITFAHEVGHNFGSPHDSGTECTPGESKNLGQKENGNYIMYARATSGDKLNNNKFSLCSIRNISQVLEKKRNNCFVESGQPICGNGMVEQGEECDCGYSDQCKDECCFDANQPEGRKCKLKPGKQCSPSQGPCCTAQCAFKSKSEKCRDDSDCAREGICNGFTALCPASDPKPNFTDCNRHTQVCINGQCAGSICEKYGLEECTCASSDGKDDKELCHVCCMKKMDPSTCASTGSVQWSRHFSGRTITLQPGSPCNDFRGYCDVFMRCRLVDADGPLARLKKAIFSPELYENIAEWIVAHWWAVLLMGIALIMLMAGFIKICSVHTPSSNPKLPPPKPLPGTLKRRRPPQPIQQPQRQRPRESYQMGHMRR
UniProt O15440: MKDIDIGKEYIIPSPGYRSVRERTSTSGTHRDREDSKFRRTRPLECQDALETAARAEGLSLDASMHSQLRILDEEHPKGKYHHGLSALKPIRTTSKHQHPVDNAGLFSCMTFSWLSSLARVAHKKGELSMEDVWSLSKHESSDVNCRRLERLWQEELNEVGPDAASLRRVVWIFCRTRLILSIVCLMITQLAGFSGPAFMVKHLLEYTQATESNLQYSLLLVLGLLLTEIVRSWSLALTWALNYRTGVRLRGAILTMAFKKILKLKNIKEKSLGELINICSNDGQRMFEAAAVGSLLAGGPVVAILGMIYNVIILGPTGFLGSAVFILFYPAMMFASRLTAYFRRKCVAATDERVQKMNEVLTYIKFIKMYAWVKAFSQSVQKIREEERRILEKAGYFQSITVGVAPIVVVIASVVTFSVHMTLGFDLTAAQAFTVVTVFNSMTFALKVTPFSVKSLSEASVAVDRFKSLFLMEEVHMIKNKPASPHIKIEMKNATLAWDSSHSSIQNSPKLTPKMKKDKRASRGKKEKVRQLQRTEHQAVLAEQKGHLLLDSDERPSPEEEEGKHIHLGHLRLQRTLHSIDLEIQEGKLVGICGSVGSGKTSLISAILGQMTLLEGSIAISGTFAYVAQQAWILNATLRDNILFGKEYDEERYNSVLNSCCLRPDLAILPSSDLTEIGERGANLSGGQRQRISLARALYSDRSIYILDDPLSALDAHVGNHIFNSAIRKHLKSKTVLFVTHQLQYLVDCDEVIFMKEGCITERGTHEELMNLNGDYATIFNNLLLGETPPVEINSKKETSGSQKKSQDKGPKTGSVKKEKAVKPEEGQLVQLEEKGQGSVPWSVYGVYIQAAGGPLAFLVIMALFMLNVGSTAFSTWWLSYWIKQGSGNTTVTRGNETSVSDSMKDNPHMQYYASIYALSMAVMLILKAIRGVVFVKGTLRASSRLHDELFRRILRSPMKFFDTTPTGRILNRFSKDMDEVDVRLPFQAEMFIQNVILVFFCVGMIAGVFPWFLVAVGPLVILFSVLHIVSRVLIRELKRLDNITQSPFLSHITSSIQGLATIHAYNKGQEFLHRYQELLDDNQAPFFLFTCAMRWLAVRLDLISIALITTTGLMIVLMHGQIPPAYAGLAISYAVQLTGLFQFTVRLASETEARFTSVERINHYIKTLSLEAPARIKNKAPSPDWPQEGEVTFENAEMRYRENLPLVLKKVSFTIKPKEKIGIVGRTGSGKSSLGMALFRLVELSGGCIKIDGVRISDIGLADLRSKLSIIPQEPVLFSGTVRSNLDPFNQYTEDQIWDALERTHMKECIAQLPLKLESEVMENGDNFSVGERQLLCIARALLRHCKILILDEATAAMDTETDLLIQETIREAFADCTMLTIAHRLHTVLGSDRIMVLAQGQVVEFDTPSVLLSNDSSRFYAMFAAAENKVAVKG
UniProt O14678: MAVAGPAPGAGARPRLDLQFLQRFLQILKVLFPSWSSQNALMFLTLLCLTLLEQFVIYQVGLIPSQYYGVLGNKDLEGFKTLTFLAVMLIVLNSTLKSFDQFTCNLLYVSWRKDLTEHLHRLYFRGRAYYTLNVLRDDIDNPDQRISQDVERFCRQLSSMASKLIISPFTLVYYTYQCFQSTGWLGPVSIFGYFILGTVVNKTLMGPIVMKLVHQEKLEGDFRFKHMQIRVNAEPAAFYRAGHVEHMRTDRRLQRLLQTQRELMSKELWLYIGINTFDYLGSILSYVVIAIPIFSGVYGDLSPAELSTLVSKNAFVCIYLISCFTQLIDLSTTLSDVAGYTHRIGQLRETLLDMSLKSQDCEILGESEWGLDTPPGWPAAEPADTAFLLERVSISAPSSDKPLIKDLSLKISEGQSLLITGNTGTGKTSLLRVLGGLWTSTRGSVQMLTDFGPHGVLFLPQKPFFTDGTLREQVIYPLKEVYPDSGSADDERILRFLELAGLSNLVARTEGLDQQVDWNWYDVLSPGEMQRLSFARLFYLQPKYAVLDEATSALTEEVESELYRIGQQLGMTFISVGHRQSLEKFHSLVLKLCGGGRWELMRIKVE
UniProt O96019, whole entry, looked up: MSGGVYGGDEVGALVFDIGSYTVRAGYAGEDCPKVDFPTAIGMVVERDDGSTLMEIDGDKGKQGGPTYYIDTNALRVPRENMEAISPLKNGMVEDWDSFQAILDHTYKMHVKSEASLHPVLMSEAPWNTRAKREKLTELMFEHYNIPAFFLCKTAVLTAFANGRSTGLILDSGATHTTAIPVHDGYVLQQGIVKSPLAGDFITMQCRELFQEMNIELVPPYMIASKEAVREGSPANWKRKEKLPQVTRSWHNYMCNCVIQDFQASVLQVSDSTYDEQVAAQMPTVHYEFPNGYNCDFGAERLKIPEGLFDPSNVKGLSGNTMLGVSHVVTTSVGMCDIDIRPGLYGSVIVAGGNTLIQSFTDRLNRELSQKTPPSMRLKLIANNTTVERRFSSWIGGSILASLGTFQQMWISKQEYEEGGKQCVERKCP
UniProt Q6UY14: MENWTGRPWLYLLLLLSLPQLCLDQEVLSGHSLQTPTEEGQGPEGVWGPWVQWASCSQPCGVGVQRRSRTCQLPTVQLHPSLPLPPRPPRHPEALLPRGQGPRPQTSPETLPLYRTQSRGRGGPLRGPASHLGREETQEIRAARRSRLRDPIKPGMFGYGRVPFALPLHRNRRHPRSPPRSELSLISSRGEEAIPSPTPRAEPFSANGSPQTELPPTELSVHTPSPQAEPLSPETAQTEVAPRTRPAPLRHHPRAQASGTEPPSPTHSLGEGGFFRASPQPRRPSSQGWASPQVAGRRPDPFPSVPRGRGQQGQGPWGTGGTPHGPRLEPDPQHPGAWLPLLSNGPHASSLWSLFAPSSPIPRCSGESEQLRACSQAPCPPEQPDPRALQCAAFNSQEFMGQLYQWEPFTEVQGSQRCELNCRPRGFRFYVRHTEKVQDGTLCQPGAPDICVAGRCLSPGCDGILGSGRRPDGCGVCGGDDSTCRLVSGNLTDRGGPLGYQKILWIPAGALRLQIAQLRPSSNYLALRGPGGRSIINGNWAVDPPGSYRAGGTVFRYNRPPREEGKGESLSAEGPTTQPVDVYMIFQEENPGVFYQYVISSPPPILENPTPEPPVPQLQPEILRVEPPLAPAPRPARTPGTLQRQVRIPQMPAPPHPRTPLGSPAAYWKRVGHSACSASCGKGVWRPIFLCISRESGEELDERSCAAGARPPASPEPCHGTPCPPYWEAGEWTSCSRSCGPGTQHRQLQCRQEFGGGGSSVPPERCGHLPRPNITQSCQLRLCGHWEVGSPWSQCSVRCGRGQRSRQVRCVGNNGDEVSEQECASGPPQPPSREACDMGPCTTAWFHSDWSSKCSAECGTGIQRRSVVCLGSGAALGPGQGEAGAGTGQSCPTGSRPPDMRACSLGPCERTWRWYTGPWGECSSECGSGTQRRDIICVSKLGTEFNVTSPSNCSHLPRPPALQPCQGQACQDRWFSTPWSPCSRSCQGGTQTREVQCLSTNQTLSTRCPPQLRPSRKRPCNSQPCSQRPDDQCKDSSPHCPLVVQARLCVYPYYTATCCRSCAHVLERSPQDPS

Key:
Assay in all cases: log2 fold change, soluble protein after heating vs DMSO (PISA); higher = thermal stabilisation; K562 cells, 10 uM, 30 min; active = over 0.2 and 3.5 SD of the protein, either way, in both replicates (recomputed)
[1] = compound: CC[C@@H]1C(=O)N(C)c2cnc(Nc3ccc(C(=O)NC4CCN(C)CC4)cc3OC)nc2N1C1CCCC1
Method in brief: (§1)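 K562 cells at 2×10^6 cells/mL were treated with 10 μM compound for 30 min. Aliquots were heated for 3 min across 48°C-58°C, pooled, and extracted in PBS with 0.5% NP-40 at 4°C; soluble protein was the supernatant after 21,000xg for 90 min. Soluble protein was quantified by TMTpro 16plex LC-MS/MS with channel sums equalised, and reported as log2 fold change in thermal stability against DMSO controls, with values from duplicates.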

[2] = compound: CC[C@@H]1C(=O)N(C)c2cnc(Nc3ccc(C(=O)N[C@H]4CC[C@H](N5CCN(CC6CC6)CC5)CC4)cc3OC)nc2N1C(C)C [volasertib]
Method in brief: as §1

[3] = compound: CC[C@H](C)N1C=C(C2=C(C=C(C=C21)C3=CN=C(C=C3)N4CCNCC4)C(=O)NCC5=C(C=C(NC5=O)C)C)C
Method in brief: as §1

[4] = compound: CC[C@H](C)[C@@H](C(=O)N[C@@H]([C@@H](C)O)C(=O)N[C@@H](CC(C)C)C(=O)[C@]1(CO1)C)NC(=O)[C@H]([C@@H](C)CC)N(C)C(=O)C [epoxomicin]
Method in brief: as §1

[5] = compound: CCn1c(C(=O)N(C2CC2)C2CC2)cc2c3c(ncn3C)c(Nc3cc(C)n(C)n3)nc21
Method in brief: as §1

[6] = compound: CCn1cc(-c2ccnc3[nH]c(-c4cccc(CN(C)C)c4)cc23)c(-c2ccc(NC(=O)N(C)C)cc2)n1
Method in brief: as §1

[7] = compound: CN(C)CC(=O)Nc1ccc2[nH]c(=O)c3ccccc3c2c1
Method in brief: as §1

[8] = compound: CN(CCOC1=CC=C(C=C1)C[C@H]2C(=O)NC(=O)S2)C3=CC=CC=N3 (racemic) [rosiglitazone]
Method in brief: as §1

[9] = compound: CN1C2=C(C3=C1C(=O)N(N=C3)CC4=CC(=CC=C4)N)SC(=C2)S(=O)C
Method in brief: as §1

[10] = compound: CN1CCC(CNc2ccc3ncc(-c4cccc(OC(F)(F)F)c4)n3n2)CC1
Method in brief: as §1

[11] = compound: CN1CCN(CCOc2cc(OC3CCOCC3)c3c(Nc4c(Cl)ccc5c4OCO5)ncnc3c2)CC1 [saracatinib]
Method in brief: as §1

[12] = compound: CN1CCN(c2nc(C3=C(c4c[nH]c5ccccc45)C(=O)NC3=O)c3ccccc3n2)CC1 [sotrastaurin]
Method in brief: as §1

[13] = compound: CN1CC[C@H](c2c(O)cc(O)c3c(=O)cc(-c4ccccc4Cl)oc23)[C@H](O)C1 [alvocidib]
Method in brief: as §1

[14] = compound: CN1CCc2c(c3ccccc3n2Cc2ccc(C(=O)NO)cc2)C1 [Tubastatin A]
Method in brief: as §1

[15] = compound: CNC(=O)C1=CC=CC=C1NC2=NC(=NC=C2Cl)NC3=C(C=C(C=C3)N4CCOCC4)OC
Method in brief: as §1

[16] = compound: CNC(=O)c1ccc(Nc2ncc(C(F)(F)F)c(NCc3nccnc3N(C)S(C)(=O)=O)n2)cc1 [defactinib]
Method in brief: as §1

[17] = compound: CNCc1ccc(-c2[nH]c3cc(F)cc4c3c2CCNC4=O)cc1 [rucaparib]
Method in brief: as §1

[18] = compound: CNc1nc(-c2ccc3c(N)n[nH]c3c2)cc(N2C[C@@H](C(=O)NC3CCCCC3)CC[C@H]2C)n1
Method in brief: as §1

[19] = compound: COC(=O)N[C@@H](C)CNc1nccc(-c2cn(C(C)C)nc2-c2cc(Cl)cc(NS(C)(=O)=O)c2F)n1 [encorafenib]
Method in brief: as §1

[20] = compound: COC(=O)[C@H](CCSC)NC(=O)C1=C(C=C(C=C1)NC[C@H](CS)N)C2=CC=CC=C2
Method in brief: as §1

Measured: log2 fold change

A2M (UniProt P01023)
inactive: [1] -0.034 | [2] 0.028 | [3] 0.025 | [4] -0.647 | [5] -0.013 | [6] 0.035 | [7] -0.031 | [8] -0.007 | [9] 0.356 | [10] 0.043 | [11] 0.441 | [12] 0.227 | [13] 0.103 | [14] -0.088 | [15] 0.118 | [16] -0.1 | [17] -0.227 | [18] 0.111 | [19] 0.061 | [20] 0.109

ADAL (UniProt Q6DHV7)
inactive: [1] 0.072 | [2] 0.037 | [3] 0.032 | [4] 0.004 | [5] 0.001 | [6] -0.011 | [7] -0.078 | [8] 0.006 | [9] -0.083 | [10] -0.025 | [11] 0.025 | [12] 0.011 | [13] 0.005 | [14] -0.039 | [15] -0.038 | [16] 0.029 | [17] -0.066 | [18] -0.022 | [19] -0.029 | [20] 0.024

AASDHPPT (UniProt Q9NRN7)
inactive: [1] -0.032 | [2] -0.043 | [3] 0.02 | [4] 0.051 | [5] -0.042 | [6] -0.045 | [7] 0.012 | [8] 0.018 | [9] -0.088 | [10] 0.023 | [11] 0.003 | [12] 0.002 | [13] -0.025 | [14] -0.006 | [15] -0.009 | [16] -0.021 | [17] -0.039 | [18] -0.069 | [19] 0.026 | [20] 0.013

ACADS (UniProt P16219)
inactive: [1] 0.064 | [2] -0.028 | [3] -0.009 | [4] -0.001 | [5] -0.016 | [6] -0.037 | [7] 0.431 | [8] 0.016 | [9] -0.063 | [10] 0.069 | [11] 0.039 | [12] 0.075 | [13] -0.067 | [14] -0.003 | [15] -0.003 | [16] 0.054 | [17] -0.052 | [18] 0.01 | [19] -0.099 | [20] -0.034

ABCE1 (UniProt H0Y990)
inactive: [1] 0.067 | [2] -0.002 | [3] -0.013 | [4] 0.162 | [5] -0.212 | [6] 0.128 | [7] 0.083 | [8] 0.076 | [9] -0.034 | [10] 0.121 | [11] 0.036 | [12] 0.081 | [13] 0.02 | [14] -0.075 | [15] -0.008 | [16] -0.038 | [17] -0.244 | [18] -0.05 | [19] -0.004 | [20] 0.092

ABCE1 (UniProt P61221)
inactive: [1] 0.027 | [2] 0.041 | [3] -0.031 | [4] 0.001 | [5] 0.045 | [6] 0 | [7] -0.025 | [8] -0.001 | [9] -0.018 | [10] -0.018 | [11] -0.005 | [12] 0.013 | [13] 0.012 | [14] -0.023 | [15] 0.083 | [16] 0.004 | [17] -0.051 | [18] -0.047 | [19] -0.004 | [20] 0.021

ACYP1 (UniProt P07311)
inactive: [1] 0.013 | [2] 0.104 | [3] 0.016 | [4] -0.028 | [5] 0.045 | [6] -0.084 | [7] 0.035 | [8] 0.034 | [9] -0.05 | [10] -0.101 | [11] 0.006 | [12] 0.032 | [13] -0.064 | [14] 0.013 | [15] 0.089 | [16] -0.027 | [17] -0.071 | [18] -0.057 | [19] -0.062 | [20] 0.011

ABCB10 (UniProt Q9NRK6)
inactive: [1] 0.009 | [2] 0.004 | [3] -0.019 | [4] 0.01 | [5] -0.003 | [6] 0.007 | [7] -0.033 | [8] -0.004 | [9] -0.034 | [10] -0.035 | [11] 0.02 | [12] 0.046 | [13] -0.019 | [14] -0.023 | [15] 0.002 | [16] -0.001 | [17] -0.035 | [18] -0.052 | [19] -0.021 | [20] 0.027

ACSL3 (UniProt O95573)
active: [2] -0.23 | [8] 0.642
inactive: [1] -0.062 | [3] 0.022 | [4] 0.048 | [6] -0.042 | [7] 0.024 | [9] -0.036 | [10] -0.1 | [11] 0 | [12] -0.014 | [14] -0.022 | [15] -0.008 | [16] -0.043 | [17] -0.002 | [18] 0.041 | [19] 0.008 | [20] -0.01

ADAM10 (UniProt O14672)
inactive: [1] 0.037 | [2] -0.046 | [3] -0.026 | [4] -0.037 | [5] -0.016 | [6] -0.063 | [7] -0.045 | [8] 0.005 | [9] -0.041 | [10] 0.072 | [11] -0.017 | [12] -0.003 | [13] -0.018 | [14] -0.014 | [15] -0.025 | [16] -0.053 | [17] -0.003 | [18] 0.052 | [19] 0.002 | [20] -0.001

ABCC5 (UniProt O15440)
inactive: [1] -0.075 | [2] 0.027 | [3] 0.023 | [4] -0.028 | [6] -0.031 | [7] -0.069 | [9] 0.028 | [10] 0.075 | [11] 0.107 | [12] -0.028 | [14] 0.002 | [15] -0.02 | [16] 0.019 | [17] 0.116 | [18] -0.003 | [19] -0.039 | [20] 0.026

Reprinted at random: two entries already listed, in no set order.
ABCC5 (UniProt O15440)
inactive: [1] -0.075 | [2] 0.027 | [3] 0.023 | [4] -0.028 | [6] -0.031 | [7] -0.069 | [9] 0.028 | [10] 0.075 | [11] 0.107 | [12] -0.028 | [14] 0.002 | [15] -0.02 | [16] 0.019 | [17] 0.116 | [18] -0.003 | [19] -0.039 | [20] 0.026

ADAM10 (UniProt O14672)
inactive: [1] 0.037 | [2] -0.046 | [3] -0.026 | [4] -0.037 | [5] -0.016 | [6] -0.063 | [7] -0.045 | [8] 0.005 | [9] -0.041 | [10] 0.072 | [11] -0.017 | [12] -0.003 | [13] -0.018 | [14] -0.014 | [15] -0.025 | [16] -0.053 | [17] -0.003 | [18] 0.052 | [19] 0.002 | [20] -0.001

(list continues)

ABCD4 (UniProt O14678)
inactive: [1] 0.033 | [2] 0.102 | [3] -0.224 | [4] 0.205 | [5] 0.133 | [7] 0.098 | [8] -0.099 | [12] 0.024 | [13] -0.002 | [14] -0.019 | [15] 0.057 | [16] -0.036 | [17] 0.057 | [19] -0.038 | [20] -0.043

ACTL6A (UniProt O96019)
inactive: [1] 0.015 | [2] 0.014 | [3] 0.029 | [4] 0.004 | [5] -0.024 | [6] -0.032 | [7] -0.017 | [8] 0.024 | [9] -0.042 | [10] -0.053 | [11] 0.015 | [12] 0.011 | [13] -0.04 | [14] -0.017 | [15] -0.037 | [16] 0.003 | [17] -0.034 | [18] 0.018 | [19] -0.003 | [20] -0.01

ABI2 (UniProt Q9NYB9)
inactive: [1] -0.023 | [2] -0.159 | [3] 0.076 | [4] 0.005 | [5] -0.02 | [6] -0.018 | [7] 0.078 | [8] -0.077 | [9] -0.025 | [10] -0.146 | [11] -0.013 | [12] -0.037 | [13] -0.098 | [14] 0.008 | [15] 0.038 | [16] -0.12 | [17] 0.081 | [18] 0.111 | [19] 0.07 | [20] 0.05

ADAMTSL4 isoform 3 (UniProt Q6UY14)
inactive: [1] 0.078 | [2] 0.068 | [3] -0.139 | [4] -0.147 | [5] 0.021 | [6] -0.103 | [7] -0.066 | [8] -0.028 | [9] 0.045 | [10] 0.037 | [11] -0.066 | [12] -0.05 | [13] 0.097 | [14] 0.138 | [15] -0.049 | [16] -0.056 | [17] 0.06 | [18] 0.018 | [19] 0.055 | [20] 0.079
